Measured values reported in paper PMC11188183.
Results are given in words; binding and its absence hold for the method and conditions named. In cells and extracts the contact can be indirect. Here binding means that the protein was enriched with, or labelled near, the bait; the list need not be complete. One block for each molecule: values may come before it.

By UniProt entry, the sequences of proteins in these tests, tags left out.
UniProt P16403: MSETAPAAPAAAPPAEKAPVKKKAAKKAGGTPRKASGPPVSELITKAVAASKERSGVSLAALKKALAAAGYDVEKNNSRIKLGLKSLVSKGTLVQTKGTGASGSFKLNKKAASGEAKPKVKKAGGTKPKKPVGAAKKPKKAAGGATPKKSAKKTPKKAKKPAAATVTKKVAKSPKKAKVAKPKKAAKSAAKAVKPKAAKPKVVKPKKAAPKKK
UniProt P0C0S5: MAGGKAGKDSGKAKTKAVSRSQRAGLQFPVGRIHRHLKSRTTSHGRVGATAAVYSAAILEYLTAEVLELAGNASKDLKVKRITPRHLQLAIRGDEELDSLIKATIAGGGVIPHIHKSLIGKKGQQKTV
UniProt P35908: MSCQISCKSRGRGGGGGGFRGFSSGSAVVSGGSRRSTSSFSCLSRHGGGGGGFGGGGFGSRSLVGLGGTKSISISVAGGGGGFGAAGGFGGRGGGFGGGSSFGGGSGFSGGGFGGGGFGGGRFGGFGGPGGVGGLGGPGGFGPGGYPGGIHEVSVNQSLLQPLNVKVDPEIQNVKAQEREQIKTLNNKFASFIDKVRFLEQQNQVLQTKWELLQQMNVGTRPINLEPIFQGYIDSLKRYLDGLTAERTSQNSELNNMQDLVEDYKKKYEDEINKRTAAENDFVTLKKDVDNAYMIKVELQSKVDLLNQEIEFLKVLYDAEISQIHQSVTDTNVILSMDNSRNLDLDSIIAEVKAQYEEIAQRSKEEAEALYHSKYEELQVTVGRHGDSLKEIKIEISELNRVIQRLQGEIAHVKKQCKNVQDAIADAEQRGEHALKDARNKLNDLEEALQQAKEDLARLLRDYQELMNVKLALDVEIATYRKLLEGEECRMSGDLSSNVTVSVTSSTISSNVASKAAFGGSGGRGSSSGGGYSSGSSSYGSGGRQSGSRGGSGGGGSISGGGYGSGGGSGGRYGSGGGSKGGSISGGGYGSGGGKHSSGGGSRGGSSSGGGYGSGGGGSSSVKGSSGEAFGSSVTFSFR
UniProt P04259: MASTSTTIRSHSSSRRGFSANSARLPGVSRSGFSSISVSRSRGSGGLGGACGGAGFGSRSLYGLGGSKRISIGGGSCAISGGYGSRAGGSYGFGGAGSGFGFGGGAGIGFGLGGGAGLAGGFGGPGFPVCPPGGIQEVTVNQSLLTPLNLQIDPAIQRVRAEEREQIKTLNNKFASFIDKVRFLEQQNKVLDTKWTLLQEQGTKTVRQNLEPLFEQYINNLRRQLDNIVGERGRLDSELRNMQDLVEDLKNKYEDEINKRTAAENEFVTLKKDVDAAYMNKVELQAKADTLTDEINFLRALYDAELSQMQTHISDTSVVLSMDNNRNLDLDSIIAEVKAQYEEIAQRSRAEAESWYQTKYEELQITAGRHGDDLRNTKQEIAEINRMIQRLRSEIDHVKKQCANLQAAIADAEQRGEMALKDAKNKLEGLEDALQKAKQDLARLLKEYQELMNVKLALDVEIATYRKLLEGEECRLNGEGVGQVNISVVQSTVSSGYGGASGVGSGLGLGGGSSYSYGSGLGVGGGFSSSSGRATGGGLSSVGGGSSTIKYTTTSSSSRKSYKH
UniProt P13647: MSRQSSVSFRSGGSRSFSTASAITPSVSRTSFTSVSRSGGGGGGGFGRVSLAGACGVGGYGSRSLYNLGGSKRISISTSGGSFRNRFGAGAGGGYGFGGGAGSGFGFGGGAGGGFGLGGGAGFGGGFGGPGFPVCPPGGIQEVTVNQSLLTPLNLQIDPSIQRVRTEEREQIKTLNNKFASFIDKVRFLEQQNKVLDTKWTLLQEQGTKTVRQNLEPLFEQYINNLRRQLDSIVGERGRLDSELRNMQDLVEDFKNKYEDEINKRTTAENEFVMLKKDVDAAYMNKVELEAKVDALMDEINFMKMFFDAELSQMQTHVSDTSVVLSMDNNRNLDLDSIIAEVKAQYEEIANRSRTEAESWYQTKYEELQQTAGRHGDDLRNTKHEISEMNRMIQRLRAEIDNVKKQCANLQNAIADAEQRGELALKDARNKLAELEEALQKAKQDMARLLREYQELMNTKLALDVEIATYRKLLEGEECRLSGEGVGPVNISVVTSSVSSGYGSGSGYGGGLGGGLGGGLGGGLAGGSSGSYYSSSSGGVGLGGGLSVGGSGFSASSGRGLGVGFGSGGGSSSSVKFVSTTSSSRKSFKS
UniProt Q04695: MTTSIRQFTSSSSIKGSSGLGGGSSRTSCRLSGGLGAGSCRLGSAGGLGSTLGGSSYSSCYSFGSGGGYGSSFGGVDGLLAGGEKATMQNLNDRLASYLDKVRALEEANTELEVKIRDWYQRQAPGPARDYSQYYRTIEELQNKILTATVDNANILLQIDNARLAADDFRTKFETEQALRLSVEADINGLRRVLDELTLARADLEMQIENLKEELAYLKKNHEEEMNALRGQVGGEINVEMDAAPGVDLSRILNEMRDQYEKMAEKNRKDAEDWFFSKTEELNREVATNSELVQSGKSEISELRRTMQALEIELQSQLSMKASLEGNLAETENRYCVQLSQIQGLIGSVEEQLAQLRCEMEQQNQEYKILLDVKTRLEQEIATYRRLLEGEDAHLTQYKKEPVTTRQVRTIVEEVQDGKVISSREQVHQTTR
UniProt P06748: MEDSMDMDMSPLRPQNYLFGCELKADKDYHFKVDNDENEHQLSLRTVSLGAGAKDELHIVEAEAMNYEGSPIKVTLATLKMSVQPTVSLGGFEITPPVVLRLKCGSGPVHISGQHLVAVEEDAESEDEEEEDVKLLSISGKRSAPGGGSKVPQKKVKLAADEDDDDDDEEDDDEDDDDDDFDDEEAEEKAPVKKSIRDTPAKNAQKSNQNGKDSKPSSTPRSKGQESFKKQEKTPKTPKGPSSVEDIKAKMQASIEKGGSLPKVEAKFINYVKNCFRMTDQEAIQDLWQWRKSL
UniProt P13645: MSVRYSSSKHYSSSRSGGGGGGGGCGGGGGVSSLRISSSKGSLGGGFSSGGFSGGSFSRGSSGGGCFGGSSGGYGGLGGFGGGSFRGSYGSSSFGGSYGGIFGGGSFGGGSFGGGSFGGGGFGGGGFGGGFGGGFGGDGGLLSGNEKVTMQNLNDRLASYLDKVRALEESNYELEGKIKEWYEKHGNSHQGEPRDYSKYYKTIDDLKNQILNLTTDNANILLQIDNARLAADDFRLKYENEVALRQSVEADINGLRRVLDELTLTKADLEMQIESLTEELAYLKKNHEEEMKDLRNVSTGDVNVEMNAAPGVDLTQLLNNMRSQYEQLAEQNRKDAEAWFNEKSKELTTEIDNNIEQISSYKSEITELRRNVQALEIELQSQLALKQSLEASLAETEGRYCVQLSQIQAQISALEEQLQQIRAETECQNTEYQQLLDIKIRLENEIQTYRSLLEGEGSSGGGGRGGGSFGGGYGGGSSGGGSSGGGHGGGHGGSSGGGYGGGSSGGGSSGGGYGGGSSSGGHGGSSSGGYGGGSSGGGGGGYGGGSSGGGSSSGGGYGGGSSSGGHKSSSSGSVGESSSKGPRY
UniProt P60660: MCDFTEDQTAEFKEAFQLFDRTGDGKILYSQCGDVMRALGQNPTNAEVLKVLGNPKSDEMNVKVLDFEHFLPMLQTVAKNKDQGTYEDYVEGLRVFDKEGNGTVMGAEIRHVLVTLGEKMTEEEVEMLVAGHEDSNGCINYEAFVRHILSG
UniProt P02538: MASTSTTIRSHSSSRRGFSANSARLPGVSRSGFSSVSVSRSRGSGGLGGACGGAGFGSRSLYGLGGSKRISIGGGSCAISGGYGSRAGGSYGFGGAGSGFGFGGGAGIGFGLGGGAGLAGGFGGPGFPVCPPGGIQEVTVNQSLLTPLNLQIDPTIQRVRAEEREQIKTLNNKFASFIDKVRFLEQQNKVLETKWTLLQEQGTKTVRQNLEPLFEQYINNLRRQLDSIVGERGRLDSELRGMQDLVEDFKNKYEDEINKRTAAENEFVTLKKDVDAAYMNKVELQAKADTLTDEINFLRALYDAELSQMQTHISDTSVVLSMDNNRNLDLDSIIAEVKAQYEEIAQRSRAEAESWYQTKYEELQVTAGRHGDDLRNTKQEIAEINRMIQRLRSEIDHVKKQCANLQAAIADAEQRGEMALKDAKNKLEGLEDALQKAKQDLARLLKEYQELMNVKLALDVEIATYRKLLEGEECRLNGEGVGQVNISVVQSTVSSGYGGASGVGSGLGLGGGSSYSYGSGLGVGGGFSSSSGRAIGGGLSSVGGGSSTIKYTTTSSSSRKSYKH
UniProt P16402: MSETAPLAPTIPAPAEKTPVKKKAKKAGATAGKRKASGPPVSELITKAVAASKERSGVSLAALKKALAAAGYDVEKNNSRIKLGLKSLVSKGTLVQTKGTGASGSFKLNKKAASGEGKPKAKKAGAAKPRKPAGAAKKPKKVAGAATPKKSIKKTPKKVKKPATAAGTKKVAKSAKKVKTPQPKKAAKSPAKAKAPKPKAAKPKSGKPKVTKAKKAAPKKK
UniProt P04264: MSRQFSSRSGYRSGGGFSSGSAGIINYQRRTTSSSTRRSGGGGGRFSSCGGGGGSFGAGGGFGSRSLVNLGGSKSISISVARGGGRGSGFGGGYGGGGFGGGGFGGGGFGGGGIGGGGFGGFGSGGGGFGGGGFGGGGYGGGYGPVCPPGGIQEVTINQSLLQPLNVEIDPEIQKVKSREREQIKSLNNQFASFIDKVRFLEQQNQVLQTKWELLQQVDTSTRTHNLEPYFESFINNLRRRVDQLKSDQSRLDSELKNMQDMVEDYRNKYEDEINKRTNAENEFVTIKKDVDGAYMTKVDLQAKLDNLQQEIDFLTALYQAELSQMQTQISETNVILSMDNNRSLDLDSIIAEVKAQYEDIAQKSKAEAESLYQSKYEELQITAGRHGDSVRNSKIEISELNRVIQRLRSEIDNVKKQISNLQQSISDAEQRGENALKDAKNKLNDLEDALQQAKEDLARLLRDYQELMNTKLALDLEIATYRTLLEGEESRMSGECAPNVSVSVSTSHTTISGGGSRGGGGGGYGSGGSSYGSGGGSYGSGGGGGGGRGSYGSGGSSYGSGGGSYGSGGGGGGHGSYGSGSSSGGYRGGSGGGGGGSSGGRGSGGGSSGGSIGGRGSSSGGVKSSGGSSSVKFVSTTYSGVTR
UniProt P48668: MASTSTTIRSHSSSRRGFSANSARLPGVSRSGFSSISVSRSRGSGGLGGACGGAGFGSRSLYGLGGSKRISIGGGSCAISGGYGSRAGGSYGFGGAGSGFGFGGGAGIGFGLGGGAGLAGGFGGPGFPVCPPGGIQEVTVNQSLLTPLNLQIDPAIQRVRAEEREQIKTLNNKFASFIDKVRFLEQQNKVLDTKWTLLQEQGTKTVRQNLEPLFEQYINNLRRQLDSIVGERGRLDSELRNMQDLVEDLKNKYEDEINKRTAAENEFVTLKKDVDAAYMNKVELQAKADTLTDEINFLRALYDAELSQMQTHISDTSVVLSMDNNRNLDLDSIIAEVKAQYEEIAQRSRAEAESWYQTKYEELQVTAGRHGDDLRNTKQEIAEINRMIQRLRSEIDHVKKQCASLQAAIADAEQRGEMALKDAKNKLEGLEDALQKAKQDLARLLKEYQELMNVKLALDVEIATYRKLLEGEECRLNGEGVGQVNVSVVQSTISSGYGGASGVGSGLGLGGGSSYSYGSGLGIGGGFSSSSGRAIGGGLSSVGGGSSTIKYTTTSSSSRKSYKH
UniProt P16401: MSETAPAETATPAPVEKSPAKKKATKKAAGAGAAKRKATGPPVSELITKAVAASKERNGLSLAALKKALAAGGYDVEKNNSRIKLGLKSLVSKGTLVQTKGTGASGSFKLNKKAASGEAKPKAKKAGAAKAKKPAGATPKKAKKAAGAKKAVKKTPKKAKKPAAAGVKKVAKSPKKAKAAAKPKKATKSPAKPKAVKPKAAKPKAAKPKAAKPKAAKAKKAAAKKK

What was measured:
[1] = target: T1, kinesin family member C1 (KIFC1) (human) (UniProt Q9BW19); experiment: affinity purification with mass spectrometry; anti-KIFC1 antibody (Abcam ab172620) crosslinked to magnetic beads; nuclear lysate of BT-549 (EA) cells; LC-MS/MS of the eluate
T1 sequence: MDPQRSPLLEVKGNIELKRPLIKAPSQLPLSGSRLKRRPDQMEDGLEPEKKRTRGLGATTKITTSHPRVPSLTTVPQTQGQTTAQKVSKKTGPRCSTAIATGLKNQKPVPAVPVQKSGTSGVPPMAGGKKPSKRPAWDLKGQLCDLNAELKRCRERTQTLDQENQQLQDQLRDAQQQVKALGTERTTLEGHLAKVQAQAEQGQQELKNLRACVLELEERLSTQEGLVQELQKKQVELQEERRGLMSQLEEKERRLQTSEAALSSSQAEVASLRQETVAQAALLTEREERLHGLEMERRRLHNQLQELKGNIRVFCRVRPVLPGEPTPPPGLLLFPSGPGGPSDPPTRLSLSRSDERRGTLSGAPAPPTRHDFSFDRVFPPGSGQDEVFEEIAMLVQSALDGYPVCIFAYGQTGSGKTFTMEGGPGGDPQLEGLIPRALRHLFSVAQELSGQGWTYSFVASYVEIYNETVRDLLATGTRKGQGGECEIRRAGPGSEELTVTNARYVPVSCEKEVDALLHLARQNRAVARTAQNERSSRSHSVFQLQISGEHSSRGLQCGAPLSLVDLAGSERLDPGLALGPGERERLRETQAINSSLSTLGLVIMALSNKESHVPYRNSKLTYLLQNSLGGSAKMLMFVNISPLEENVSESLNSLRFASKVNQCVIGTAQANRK

[2] = target: T1, kinesin family member C1 (KIFC1) (human); experiment: affinity purification with mass spectrometry; anti-KIFC1 antibody (Abcam ab172620) crosslinked to magnetic beads; nuclear lysate of HCC1806 (AA) cells; LC-MS/MS of the eluate
[3] = target: T1, kinesin family member C1 (KIFC1) (human); experiment: affinity purification with mass spectrometry; anti-KIFC1 antibody (Abcam ab172620) crosslinked to magnetic beads; nuclear lysate of MDA-MB-231 (EA) cells; LC-MS/MS of the eluate
[4] = target: T1, kinesin family member C1 (KIFC1) (human); experiment: affinity purification with mass spectrometry; anti-KIFC1 antibody (Abcam ab172620) crosslinked to magnetic beads; nuclear lysate of MDA-MB-468 (AA) cells; LC-MS/MS of the eluate

- binding [1]: binds
- binding [3]: binds
Molecule: H12_HUMAN (from UniProt P16403 1-213)

- binding [3]: binds
Molecule: H2AZ_HUMAN (from UniProt P0C0S5 1-128)

- binding [1]: binds
- binding [3]: binds
- binding [2]: binds
Molecule: K22E_HUMAN (from UniProt P35908 1-639)

- binding [1]: binds
- binding [3]: binds
- binding [4]: binds
- binding [2]: binds
Molecule: K2C6B_HUMAN (from UniProt P04259 1-564)

- binding [3]: binds
- binding [2]: binds
Molecule: K2C5_HUMAN (from UniProt P13647 1-590)

- binding [1]: binds
B4: NR2C1_HUMAN (protein, UniProt P13056 1-603)
chain: MATIEEIAHQIIEQQMGEIVTEQQTGQKIQIVTALDHNTQGKQFILTNHDGSTPSKVILARQDSTPGKVFLTTPDAAGVNQLFFTTPDLSAQHLQLLTDNSPDQGPNKVFDLCVVCGDKASGRHYGAVTCEGCKGFFKRSIRKNLVYSCRGSKDCIINKHHRNRCQYCRLQRCIAFGMKQDSVQCERKPIEVSREKSSNCAASTEKIYIRKDLRSPLTATPTFVTDSESTRSTGLLDSGMFMNIHPSGVKTESAVLMTSDKAESCQGDLSTLANVVTSLANLGKTKDLSQNSNEMSMIESLSNDDTSLCEFQEMQTNGDVSRAFDTLAKALNPGESTACQSSVAGMEGSVHLITGDSSINYTEKEGPLLSDSHVAFRLTMPSPMPEYLNVHYIGESASRLLFLSMHWALSIPSFQALGQENSISLVKAYWNELFTLGLAQCWQVMNVATILATFVNCLHNSLQQDKMSTERRKLLMEHIFKLQEFCNSMVKLCIDGYEYAYLKAIVLFSPDHPSLENMEQIEKFQEKAYVEFQDYITKTYPDDTYRLSRLLLRLPALRLMNATITEELFFKGLIGNIRIDSVIPHILKMEPADYNSQIIGHSI

- binding [1]: binds
B5: LMBD2_HUMAN (protein, UniProt Q68DH5 1-695)
chain: MSGAALGLEIVFVFFLALFLLHRYGDFKKQHRLVIIGTLLAWYLCFLIVFILPLDVSTTIYNRCKHAAANSSPPENSNITGLYATANPVPSQHPCFKPWSYIPDGIMPIFWRVVYWTSQFLTWILLPFMQSYARSGGFSITGKIKTALIENAIYYGTYLLIFGAFLIYVAVNPHLHLEWNQLQTIGIAAANTWGLFLLVLLLGYGLVEIPRSYWNGAKRGYLLMKTYFKAAKLMTEKADAEENLEDAMEEVRKVNESIKYNHPLRKCVDTILKKCPTEYQEKMGRNMDDYEDFDEKHSIYPSEKSLVKLHKQVIYSVQRHRRTQVQWQILLEQAFYLEDVAKNETSATHQFVHTFQSPEPENRFIQYFYNPTFEWYWECLLRPWFYKILAVVLSIFSVIVVWSECTFFSTTPVLSLFAVFIQLAEKTYNYIYIEIACFLSIFFLSICVYSTVFRIRVFNYYYLASHHQTDAYSLLFSGMLFCRLTPPLCLNFLGLTHMDSSISHKNTQPTAYTSIMGSMKVLSFIADGFYIYYPMLVVILCIATYFSLGTRCLNLLGFQQFMGDDDMTSDLVNEGKELIRKEKRKRQRQEEGENRRREWKERYGHNREDSTRNRNIHTDPKESNFSDVNTNRSAFKYTRANNRTERDRIELLQDAEPLDFNAETFTDDPLESESGRYQPGGRYLSMSRSDIFNDV

Further lines, the molecule ahead of its results:

Molecule: K1C17_HUMAN (from UniProt Q04695 1-432)
- binding [1]: binds
- binding [2]: binds

Molecule: NPM_HUMAN (from UniProt P06748 1-294)
- binding [3]: binds

Molecule: K1C10_HUMAN (from UniProt P13645 1-584)
- binding [1]: binds
- binding [3]: binds
- binding [2]: binds

Molecule: MYL6_HUMAN (from UniProt P60660 1-151)
- binding [3]: binds

Molecule: K2C6A_HUMAN (from UniProt P02538 1-564)
- binding [3]: binds
- binding [2]: binds

Molecule: H13_HUMAN (from UniProt P16402 1-221)
- binding [1]: binds
- binding [3]: binds

Molecule: K2C1_HUMAN (from UniProt P04264 1-644)
- binding [1]: binds
- binding [3]: binds

Molecule: K2C6C_HUMAN (from UniProt P48668 1-564)
- binding [3]: binds
- binding [2]: binds

Molecule: H15_HUMAN (from UniProt P16401 1-226)
- binding [1]: binds
- binding [3]: binds

B1: ASB2_HUMAN (protein, UniProt Q96Q27 1-635)
chain: MATQISTRGSQCTIGQEEYSLYSSLSEDELVQMAIEQSLADKTRGPTTAEATASACTNRQPAHFYPWTRSTAPPESSPARAPMGLFQGVMQKYSSSLFKTSQLAPADPLIKAIKDGDEEALKTMIKEGKNLAEPNKEGWLPLHEAAYYGQVGCLKVLQRAYPGTIDQRTLQEETAVYLATCRGHLDCLLSLLQAGAEPDISNKSRETPLYKACERKNAEAVKILVQHNADTNHRCNRGWTALHESVSRNDLEVMQILVSGGAKVESKNAYGITPLFVAAQSGQLEALRFLAKYGADINTQASDNASALYEACKNEHEEVVEFLLSQGADANKTNKDGLLPLHIASKKGNYRIVQMLLPVTSRTRIRRSGVSPLHLAAERNHDEVLEALLSARFDVNTPLAPERARLYEDRRSSALYFAVVNNNVYATELLLQHGADPNRDVISPLLVAIRHGCLRTMQLLLDHGANIDAYIATHPTAFPATIMFAMKCLSLLKFLMDLGCDGEPCFSCLYGNGPHPPAPQPSSRFNDAPAADKEPSVVQFCEFVSAPEVSRWAGPIIDVLLDYVGNVQLCSRLKEHIDSFEDWAVIKEKAEPPRPLAHLCRLRVRKAIGKYRIKLLDTLPLPGRLIRYLKYENTQ
- binding [1]: binds

B2: H1T_HUMAN (protein, UniProt P22492 1-207)
chain: MSETVPAASASAGVAAMEKLPTKKRGRKPAGLISASRKVPNLSVSKLITEALSVSQERVGMSLVALKKALAAAGYDVEKNNSRIKLSLKSLVNKGILVQTRGTGASGSFKLSKKVIPKSTRSKAKKSVSAKTKKLVLSRDSKSPKTAKTNKRAKKPRATTPKTVRSGRKAKGAKGKQQQKSPVKARASKSKLTQHHEVNVRKATSKK
- binding [1]: binds

B3: K1C9_HUMAN (protein, UniProt P35527 1-623)
chain: MSCRQFSSSYLSRSGGGGGGGLGSGGSIRSSYSRFSSSGGGGGGGRFSSSSGYGGGSSRVCGRGGGGSFGYSYGGGSGGGFSASSLGGGFGGGSRGFGGASGGGYSSSGGFGGGFGGGSGGGFGGGYGSGFGGFGGFGGGAGGGDGGILTANEKSTMQELNSRLASYLDKVQALEEANNDLENKIQDWYDKKGPAAIQKNYSPYYNTIDDLKDQIVDLTVGNNKTLLDIDNTRMTLDDFRIKFEMEQNLRQGVDADINGLRQVLDNLTMEKSDLEMQYETLQEELMALKKNHKEEMSQLTGQNSGDVNVEINVAPGKDLTKTLNDMRQEYEQLIAKNRKDIENQYETQITQIEHEVSSSGQEVQSSAKEVTQLRHGVQELEIELQSQLSKKAALEKSLEDTKNRYCGQLQMIQEQISNLEAQITDVRQEIECQNQEYSLLLSIKMRLEKEIETYHNLLEGGQEDFESSGAGKIGLGGRGGSGGSYGRGSRGGSGGSYGGGGSGGGYGGGSGSRGGSGGSYGGGSGSGGGSGGGYGGGSGGGHSGGSGGGHSGGSGGNYGGGSGSGGGSGGGYGGGSGSRGGSGGSHGGGSGFGGESGGSYGGGEEASGSGGGYGGGSGKSSHS
- binding [3]: binds
- binding [2]: binds

B6: PIP_HUMAN (protein, UniProt P12273 29-146)
chain: QDNTRKIIIKNFDIPKSVRPNDEVTAVLAVQTELKECMVVKTYLISSIPLQGAFNYKYTACLCDDNPKTFYWDFYTNRTVQIAAVVDVIRELGICPDDAAVIPIKNNRFYTIEILKVE
- binding [3]: binds
